Measured values reported in article doi:10.1101/2022.10.18.512811 (bioRxiv, 2022).
No constants are given. Whether binding was seen depends on the method and setting.

Molecular target: T1, CpxA (two-hybrid construct) (E. coli) (UniProt P0AE82)
T1 sequence: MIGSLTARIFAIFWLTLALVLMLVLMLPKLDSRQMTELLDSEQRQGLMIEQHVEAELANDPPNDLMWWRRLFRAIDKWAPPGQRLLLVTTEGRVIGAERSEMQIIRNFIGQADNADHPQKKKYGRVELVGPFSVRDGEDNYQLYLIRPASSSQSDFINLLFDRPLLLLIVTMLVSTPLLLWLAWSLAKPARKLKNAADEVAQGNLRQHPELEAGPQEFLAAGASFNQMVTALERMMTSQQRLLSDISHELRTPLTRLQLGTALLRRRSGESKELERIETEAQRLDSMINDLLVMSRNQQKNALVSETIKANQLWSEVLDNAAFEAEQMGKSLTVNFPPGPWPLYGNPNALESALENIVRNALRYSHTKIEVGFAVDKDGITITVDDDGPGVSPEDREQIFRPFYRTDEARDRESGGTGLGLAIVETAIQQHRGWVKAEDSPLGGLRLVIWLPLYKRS
Assay: two-hybrid

NlpE C-terminal domain (two-hybrid construct) (E. coli) (domain or fragment)
binding: no binding
